{"source": "patent US7601685B2", "about": "(Eidgenossische Technische Hochschule Zurich, priority 1998, dated 2009)", "assay": "peptide synthesis", "settings": "whole synthesis, TFA salt", "note": "Plain letter strings leave the end groups untold."}
{"sequence": "NQEQVSPLSVSEIQLMHNLGKHLN SMERVEWLRKKLQDVHNF (NQEQVSPLSVSEIQLMHNLGKHLNSMERVEWLRKKLQDVHNF; Modified parathyroid hormone from Homo sapiens)", "values": [{"measurement": "final purity (method not given)", "value": 95, "unit": "%"}]}
{"sequence": "NQEQVSPLYKNRSVSEIQLMHNLGKHLNSMERVEWLRKKLQDVHNF (Modified parathyroid hormone from Homo sapiens)", "values": [{"measurement": "final purity (method not given)", "value": 95, "unit": "%"}]}
